Data taken from patent US20210147572A1, “ANTIBODIES AND METHODS OF USE THEREOF” (AbeXXa Biologics, Inc., priority 2017, published 2021).

Tested on: TAP (−)
Assay: Peptide found on TAP (−) cells
Parameters: species or system human
Settings: peptide found or not found

Sequence	TAP (−)
GLADKVYFL	found
MLALLTQVA	found
QMFEGPLAL	found
SLLEKSLGL	found
TLFFQQNAL	found
TSDMPGTTL	found
VLWDRTFSL	found
